PMC4973239, “Crystal structure of the human Tip41 orthologue, TIPRL, reveals a novel fold and a binding site for the PP2Ac C-terminus” (Scientific Reports, 2016)
These are yes or no findings as the source states them, for the method shown. In cells and extracts the contact can be indirect. Binding can be weak; no strength is given. Where a sequence is shown, tags or fusion partners need not be part of it.

Amino acid sequences for entries named in this document (tags omitted). A change or cut given only in a name is not applied to a line headed by its entry.
UniProt P67775: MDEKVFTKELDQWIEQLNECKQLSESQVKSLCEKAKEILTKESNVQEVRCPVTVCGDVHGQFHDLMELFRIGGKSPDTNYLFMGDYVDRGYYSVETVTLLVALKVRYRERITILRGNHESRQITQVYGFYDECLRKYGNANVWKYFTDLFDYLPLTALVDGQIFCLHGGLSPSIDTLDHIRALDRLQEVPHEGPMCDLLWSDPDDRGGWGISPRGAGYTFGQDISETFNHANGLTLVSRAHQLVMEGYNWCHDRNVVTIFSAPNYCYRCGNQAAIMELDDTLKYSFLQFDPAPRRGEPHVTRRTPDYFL

How the values were obtained:
Assay in all cases: pull-down; GST pull-down; GST-PP2Ac and His-TIPRL co-expressed in E. coli BL21(DE3); cleared lysates on glutathione-sepharose beads, 1 h at 4 °C, PBS pH 7.4 with 0.5% IGEPAL CA-630, 1 mM DTT; Coomassie-stained SDS-PAGE
[1] = biological target: GST-tagged PP2Ac (residues 210–309) (UniProt P67775)
[2] = biological target: GST-tagged PP2Ac (residues 210–309) Y307E (UniProt P67775)
[3] = biological target: GST-tagged PP2Ac (residues 210–309) ΔTPDYFL (UniProt P67775)
[4] = biological target: GST-tagged, full length PP2Ac Y307E (UniProt P67775)
[5] = biological target: GST-tagged, full length PP2Ac ΔTPDYFL (UniProt P67775)

Measured: binding

B1: His-tagged, full length TIPRL (protein, UniProt O75663-1 1-272)
chain: MMIHGFQSSHRDFCFGPWKLTASKTHIMKSADVEKLADELHMPSLPEMMFGDNVLRIQHGSGFGIEFNATDALRCVNNYQGMLKVACAEEWQESRTEGEHSKEVIKPYDWTYTTDYKGTLLGESLKLKVVPTTDHIDTEKLKAREQIKFFEEVLLFEDELHDHGVSSLSVKIRVMPSSFFLLLRFFLRIDGVLIRMNDTRLYHEADKTYMLREYTSRESKISSLMHVPPSLFTEPNEISQYLPIKEAVCEKLIFPERIDPNPADSQKSTQVE
binds: [1] | [2] | [3] | [4] | [5]
